Source: article PMC3751551
No constants are given. Whether binding was seen depends on the method and setting. Binding seen in cells or lysates may run through a third protein.

Protein sequences, listed by entry. Tags and fused reporters are not part of them. Residues count along the entry.
UniProt Q10589, residues 1-161: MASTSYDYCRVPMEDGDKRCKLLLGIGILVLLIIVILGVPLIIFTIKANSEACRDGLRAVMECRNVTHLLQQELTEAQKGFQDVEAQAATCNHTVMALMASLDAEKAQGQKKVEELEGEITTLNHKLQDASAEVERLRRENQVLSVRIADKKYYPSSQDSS
UniProt Q9NNX6: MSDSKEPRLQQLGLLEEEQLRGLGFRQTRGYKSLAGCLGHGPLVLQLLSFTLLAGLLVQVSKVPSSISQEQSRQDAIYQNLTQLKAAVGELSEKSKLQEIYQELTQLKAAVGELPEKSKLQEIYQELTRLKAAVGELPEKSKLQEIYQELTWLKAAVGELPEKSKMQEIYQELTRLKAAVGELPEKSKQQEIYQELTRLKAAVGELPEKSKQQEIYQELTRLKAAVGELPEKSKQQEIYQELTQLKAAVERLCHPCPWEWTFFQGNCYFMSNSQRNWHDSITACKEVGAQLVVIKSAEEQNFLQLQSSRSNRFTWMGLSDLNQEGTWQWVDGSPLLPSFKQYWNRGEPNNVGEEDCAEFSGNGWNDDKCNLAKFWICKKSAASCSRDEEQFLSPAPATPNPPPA

Assays:
Rluc-BST2 [1] = molecular target: Rluc-BST2 (UniProt Q10589); test: FRET or BRET; BRET in live HEK293T cells co-transfected with the Rluc donor and the EYFP acceptor fusion; 48 h after transfection, cells in PBS, coelenterazine h 5 uM; ratio 530 nm/475 nm corrected for donor only
Rluc-BST2 [2] = molecular target: Rluc-BST2 (UniProt Q10589); test: FRET or BRET; BRET saturation curve: HEK293T cells co-transfected with a fixed amount of R-B plasmid and increasing amounts of the EYFP fusion plasmid
Rluc-BST2 [3] = molecular target: Rluc-BST2 (UniProt Q10589); test: FRET or BRET; BRET competition curve: HEK293T cells with constant amounts of R-B and Vm-E and increasing amounts of an untagged competitor plasmid

E-CD209 (from UniProt Q9NNX6 1-404)
binding (Rluc-BST2 [1]): no binding
binding (Rluc-BST2 [2]): no binding

untagged protein CD209 (from UniProt Q9NNX6 1-404)
binding (Rluc-BST2 [3]): no binding
